Measurements as given in the supplement of paper PMC10849652.
This is one part of the list.

Chains of the proteins cited; added tags and fusions are not shown. Lines headed by an entry give the natural chain unless they say otherwise; changes in a name come on top.
UniProt P84103: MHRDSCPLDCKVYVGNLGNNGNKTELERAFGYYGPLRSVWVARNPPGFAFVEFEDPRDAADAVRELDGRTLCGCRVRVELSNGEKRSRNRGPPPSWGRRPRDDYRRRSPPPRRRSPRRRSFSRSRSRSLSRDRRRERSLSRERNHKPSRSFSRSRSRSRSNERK
UniProt P10124: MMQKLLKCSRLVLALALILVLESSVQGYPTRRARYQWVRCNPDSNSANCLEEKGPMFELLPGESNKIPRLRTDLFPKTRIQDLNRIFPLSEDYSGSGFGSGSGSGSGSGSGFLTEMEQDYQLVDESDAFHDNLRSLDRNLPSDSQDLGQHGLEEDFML
UniProt O43805: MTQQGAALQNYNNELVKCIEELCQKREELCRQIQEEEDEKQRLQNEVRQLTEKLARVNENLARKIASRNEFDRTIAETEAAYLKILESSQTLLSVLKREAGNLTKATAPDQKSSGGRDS
UniProt P51692: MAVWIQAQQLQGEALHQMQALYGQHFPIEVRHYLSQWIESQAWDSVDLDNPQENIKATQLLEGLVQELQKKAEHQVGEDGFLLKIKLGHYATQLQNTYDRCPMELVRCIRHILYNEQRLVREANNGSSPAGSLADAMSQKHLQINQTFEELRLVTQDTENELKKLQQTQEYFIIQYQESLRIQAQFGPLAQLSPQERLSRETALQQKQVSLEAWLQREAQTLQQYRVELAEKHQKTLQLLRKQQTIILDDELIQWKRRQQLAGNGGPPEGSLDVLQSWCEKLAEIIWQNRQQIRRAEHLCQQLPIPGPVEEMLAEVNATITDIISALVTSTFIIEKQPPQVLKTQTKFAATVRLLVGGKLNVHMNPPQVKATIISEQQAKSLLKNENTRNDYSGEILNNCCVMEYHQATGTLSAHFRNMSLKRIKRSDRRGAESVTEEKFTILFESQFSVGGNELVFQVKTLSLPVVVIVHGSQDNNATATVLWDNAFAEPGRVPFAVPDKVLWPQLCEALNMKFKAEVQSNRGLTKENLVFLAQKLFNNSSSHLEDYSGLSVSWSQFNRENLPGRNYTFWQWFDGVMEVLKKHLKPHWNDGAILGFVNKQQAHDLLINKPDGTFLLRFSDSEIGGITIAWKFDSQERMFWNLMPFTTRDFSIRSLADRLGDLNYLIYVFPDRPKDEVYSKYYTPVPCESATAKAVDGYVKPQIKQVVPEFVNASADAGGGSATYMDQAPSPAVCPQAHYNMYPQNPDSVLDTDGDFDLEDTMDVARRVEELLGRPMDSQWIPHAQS
UniProt P15907: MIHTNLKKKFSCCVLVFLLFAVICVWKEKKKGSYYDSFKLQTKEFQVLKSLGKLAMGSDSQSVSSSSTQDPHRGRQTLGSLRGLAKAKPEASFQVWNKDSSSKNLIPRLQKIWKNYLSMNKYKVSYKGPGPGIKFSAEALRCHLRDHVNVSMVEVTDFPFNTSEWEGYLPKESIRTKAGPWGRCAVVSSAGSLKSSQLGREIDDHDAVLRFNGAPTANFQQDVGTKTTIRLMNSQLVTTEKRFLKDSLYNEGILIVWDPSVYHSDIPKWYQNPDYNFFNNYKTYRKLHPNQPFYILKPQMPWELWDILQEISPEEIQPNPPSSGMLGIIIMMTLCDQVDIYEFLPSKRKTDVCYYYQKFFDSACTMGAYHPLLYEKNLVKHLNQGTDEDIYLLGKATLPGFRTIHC
UniProt Q92783: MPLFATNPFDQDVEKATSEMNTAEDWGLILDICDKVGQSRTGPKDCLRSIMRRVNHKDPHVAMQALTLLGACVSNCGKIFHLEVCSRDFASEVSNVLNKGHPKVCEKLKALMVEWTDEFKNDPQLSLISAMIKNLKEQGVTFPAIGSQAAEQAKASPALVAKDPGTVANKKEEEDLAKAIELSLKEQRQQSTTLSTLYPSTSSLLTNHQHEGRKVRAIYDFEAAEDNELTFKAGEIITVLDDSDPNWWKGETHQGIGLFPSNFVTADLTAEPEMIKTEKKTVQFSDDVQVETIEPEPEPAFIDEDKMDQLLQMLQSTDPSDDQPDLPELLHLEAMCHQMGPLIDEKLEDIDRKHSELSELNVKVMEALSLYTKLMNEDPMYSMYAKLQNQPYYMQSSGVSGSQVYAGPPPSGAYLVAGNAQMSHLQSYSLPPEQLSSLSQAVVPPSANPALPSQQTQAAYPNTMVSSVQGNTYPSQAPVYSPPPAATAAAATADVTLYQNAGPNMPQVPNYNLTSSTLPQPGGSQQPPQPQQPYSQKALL
UniProt Q9BUA3: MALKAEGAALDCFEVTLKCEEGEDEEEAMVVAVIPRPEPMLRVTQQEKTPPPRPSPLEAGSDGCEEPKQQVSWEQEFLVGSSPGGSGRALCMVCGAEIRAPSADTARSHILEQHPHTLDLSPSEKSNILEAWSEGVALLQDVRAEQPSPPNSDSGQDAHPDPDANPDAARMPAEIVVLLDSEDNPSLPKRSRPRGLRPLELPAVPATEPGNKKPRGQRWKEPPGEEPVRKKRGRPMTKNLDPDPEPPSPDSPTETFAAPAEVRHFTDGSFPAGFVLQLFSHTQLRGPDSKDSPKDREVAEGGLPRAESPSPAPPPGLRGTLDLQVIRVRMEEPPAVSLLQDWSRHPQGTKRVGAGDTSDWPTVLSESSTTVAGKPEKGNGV
UniProt O15020, whole entry, looked up: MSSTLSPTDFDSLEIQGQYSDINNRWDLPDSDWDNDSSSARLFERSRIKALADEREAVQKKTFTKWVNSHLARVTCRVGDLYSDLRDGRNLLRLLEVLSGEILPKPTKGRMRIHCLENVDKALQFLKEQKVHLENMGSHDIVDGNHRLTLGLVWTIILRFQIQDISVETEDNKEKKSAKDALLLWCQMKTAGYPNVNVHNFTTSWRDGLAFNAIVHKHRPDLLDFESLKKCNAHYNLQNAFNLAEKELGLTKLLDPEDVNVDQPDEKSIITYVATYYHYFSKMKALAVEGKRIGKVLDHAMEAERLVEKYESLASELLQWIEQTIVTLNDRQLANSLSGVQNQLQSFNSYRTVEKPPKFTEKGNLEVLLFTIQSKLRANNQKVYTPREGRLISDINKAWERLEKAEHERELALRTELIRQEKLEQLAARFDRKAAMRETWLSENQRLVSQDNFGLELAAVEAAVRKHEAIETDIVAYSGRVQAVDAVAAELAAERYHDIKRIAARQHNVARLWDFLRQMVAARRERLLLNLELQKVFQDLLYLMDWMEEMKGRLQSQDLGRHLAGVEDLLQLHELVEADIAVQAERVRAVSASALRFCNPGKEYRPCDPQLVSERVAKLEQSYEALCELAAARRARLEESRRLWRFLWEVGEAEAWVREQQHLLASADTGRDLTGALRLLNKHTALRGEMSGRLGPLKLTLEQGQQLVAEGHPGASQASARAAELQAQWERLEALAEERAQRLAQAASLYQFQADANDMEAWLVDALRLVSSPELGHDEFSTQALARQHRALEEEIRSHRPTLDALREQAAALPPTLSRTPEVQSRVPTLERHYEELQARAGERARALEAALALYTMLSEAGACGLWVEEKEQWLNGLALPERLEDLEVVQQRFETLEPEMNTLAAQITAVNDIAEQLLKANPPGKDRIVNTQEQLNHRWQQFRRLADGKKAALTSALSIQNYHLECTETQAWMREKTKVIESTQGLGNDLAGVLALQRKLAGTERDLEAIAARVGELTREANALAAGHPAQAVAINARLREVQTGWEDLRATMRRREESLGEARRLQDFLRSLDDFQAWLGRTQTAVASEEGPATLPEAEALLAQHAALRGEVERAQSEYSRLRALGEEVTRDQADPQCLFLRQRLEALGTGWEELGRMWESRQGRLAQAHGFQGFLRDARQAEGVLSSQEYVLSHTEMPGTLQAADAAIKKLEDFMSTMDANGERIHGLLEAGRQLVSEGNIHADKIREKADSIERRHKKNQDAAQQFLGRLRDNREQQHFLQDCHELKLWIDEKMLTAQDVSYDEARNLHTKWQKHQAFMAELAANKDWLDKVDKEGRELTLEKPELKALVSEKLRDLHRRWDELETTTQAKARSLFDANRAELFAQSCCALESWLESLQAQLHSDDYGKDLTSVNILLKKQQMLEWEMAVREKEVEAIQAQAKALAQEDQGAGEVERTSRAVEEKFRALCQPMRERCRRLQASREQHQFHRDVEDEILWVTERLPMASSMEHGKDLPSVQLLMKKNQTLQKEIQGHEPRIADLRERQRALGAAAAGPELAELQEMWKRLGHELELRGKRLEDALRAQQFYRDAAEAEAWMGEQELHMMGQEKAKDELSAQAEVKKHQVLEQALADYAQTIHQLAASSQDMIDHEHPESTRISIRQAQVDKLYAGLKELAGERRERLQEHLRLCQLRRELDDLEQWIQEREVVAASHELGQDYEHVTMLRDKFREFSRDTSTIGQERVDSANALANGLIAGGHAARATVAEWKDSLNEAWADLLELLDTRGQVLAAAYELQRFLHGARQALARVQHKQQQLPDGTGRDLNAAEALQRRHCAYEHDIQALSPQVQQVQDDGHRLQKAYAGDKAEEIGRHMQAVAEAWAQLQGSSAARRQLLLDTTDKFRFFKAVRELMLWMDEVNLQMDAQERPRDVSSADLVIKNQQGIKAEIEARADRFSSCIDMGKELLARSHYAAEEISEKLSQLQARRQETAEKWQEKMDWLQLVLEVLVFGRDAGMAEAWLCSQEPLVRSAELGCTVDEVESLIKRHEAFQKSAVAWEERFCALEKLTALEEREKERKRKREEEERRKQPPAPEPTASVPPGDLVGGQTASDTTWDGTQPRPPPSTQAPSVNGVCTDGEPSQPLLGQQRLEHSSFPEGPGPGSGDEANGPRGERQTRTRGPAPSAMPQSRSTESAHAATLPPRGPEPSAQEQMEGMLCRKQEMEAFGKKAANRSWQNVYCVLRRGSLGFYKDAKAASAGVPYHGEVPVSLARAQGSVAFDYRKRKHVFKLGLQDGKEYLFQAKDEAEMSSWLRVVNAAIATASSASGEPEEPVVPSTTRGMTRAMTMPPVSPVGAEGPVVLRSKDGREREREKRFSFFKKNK
UniProt P19623: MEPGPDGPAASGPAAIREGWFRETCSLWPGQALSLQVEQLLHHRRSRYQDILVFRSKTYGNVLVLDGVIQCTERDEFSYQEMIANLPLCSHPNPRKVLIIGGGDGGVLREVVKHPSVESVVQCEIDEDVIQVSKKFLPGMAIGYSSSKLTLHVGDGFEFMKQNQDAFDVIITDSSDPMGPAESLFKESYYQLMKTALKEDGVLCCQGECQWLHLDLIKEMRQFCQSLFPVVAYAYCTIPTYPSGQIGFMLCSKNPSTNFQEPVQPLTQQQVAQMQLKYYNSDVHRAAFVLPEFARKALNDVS
UniProt Q8WXA9: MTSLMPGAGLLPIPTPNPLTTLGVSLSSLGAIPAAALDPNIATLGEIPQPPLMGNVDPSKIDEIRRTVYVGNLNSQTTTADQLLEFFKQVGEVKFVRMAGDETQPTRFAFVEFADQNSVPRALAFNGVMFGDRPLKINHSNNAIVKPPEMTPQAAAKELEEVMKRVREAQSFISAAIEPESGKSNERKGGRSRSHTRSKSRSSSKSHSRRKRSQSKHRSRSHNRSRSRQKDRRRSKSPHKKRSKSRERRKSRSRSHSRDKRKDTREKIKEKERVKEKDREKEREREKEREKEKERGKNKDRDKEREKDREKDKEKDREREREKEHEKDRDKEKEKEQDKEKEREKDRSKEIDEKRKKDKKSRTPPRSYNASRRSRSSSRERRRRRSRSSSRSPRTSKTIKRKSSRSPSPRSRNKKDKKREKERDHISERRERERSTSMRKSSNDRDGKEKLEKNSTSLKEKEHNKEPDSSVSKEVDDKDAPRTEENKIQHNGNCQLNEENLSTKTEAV
UniProt O76094: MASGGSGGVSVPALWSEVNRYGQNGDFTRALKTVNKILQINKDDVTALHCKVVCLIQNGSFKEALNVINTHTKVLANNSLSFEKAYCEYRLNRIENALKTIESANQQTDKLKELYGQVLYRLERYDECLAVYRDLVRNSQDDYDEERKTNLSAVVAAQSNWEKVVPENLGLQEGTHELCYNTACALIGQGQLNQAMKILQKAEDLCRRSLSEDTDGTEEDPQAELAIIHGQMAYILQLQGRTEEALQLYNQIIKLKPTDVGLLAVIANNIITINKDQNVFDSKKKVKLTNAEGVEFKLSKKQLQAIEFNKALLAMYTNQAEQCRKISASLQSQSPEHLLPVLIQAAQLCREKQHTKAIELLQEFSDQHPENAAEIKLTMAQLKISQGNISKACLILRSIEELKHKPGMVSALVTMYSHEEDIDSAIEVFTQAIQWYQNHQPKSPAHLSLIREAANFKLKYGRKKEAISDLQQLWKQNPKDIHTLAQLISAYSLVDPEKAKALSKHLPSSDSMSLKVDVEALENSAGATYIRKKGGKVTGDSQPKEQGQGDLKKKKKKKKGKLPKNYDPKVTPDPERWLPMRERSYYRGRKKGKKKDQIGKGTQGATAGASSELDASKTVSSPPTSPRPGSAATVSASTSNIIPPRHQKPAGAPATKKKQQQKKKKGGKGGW

compound: CCCCN(Cc1ccc(C(=O)NO)cc1)C(=O)Nc1ccccc1 [Nexturastat A]; experiment: log2 fold change, soluble protein after heating vs DMSO (PISA); higher = thermal stabilisation; K562 cells, 10 uM, 30 min; active = over 0.2 and 3.5 SD of the protein, either way, in both replicates (recomputed)
Summary of the method: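 For each measurement, 10 μM compound was applied for 30 min to K562 cells at 2×10^6 cells/mL. Aliquots were heated for 3 min across 48°C-58°C, pooled, and extracted in PBS with 0.5% NP-40 at 4°C; the supernatant after 21,000xg for 90 min was soluble protein. This was quantified by TMTpro 16plex LC-MS/MS with channel sums equalised, and thermal stability was reported relative to control samples from duplicates, on a log2 fold-change scale.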

| Target | log2 fold change |
| --- | --- |
| SPPL2B (UniProt Q8TCT7) | inactive: 0.029 |
| SRSF3 (UniProt P84103) | inactive: 0.124 |
| SRGAP2 (UniProt O75044) | inactive: 0.034 |
| SRGN (UniProt P10124) | inactive: 0.037 |
| SSR1 (UniProt P43307) | inactive: -0.062 |
| SPART (UniProt Q8N0X7) | inactive: 0.005 |
| SRSF11 (UniProt Q05519) | inactive: -0.022 |
| STIM1 (UniProt Q13586) | inactive: -0.066 |
| SRSF7 (UniProt Q16629) | inactive: 0.193 |
| STK25 (UniProt O00506) | inactive: -0.006 |
| SPHK1 isoform 2 (UniProt Q9NYA1) | inactive: -0.162 |
| SPG7 (UniProt Q9UQ90) | inactive: -0.004 |
| SPTA1 (UniProt P02549) | inactive: 0.297 |
| SPPL2A (UniProt Q8TCT8) | inactive: -0.004 |
| STAT1 (UniProt P42224) | inactive: 0.444 |
| SRP68 (UniProt Q9UHB9) | inactive: 0.125 |
| SSNA1 (UniProt O43805) | inactive: -0.033 |
| STAT5B (UniProt P51692) | inactive: 0.014 |
| STAU1 (UniProt O95793) | inactive: 0.299 |

Shown as labelled records: part of the list above.
SSR1 (UniProt P43307)
  log2 fold change: inactive: -0.062
SPART (UniProt Q8N0X7)
  log2 fold change: inactive: 0.005

Following part

| Target | log2 fold change |
| --- | --- |
| SPATA5 (UniProt Q8NB90) | inactive: 0.007 |
| SSRP1 (UniProt Q08945) | inactive: -0.069 |
| ST6GAL1 (UniProt P15907) | inactive: -0.031 |
| SSX2 (UniProt Q16385) | active: -0.254 |
| STAM (UniProt Q92783) | inactive: -0.143 |
| SQSTM1 (UniProt Q13501) | inactive: 0.102 |
| STK11 (UniProt Q15831) | inactive: 0.019 |
| STARD3 (UniProt Q14849) | inactive: -0.048 |
| SPINDOC (UniProt Q9BUA3) | inactive: -0.014 |
| ST3GAL2 (UniProt Q16842) | inactive: -0.012 |
| SPCS1, A0A5F9YFS9 | inactive: 0.039 |
| SRPRA (UniProt P08240) | inactive: 0 |
| SPTBN2 (UniProt O15020) | inactive: 0.046 |
| SRSF2 (UniProt Q01130) | inactive: 0.036 |
| SRM (UniProt P19623) | inactive: -0.035 |
| SREK1 isoform 2 (UniProt Q8WXA9) | inactive: 0.108 |
| SRP72 (UniProt O76094) | inactive: 0.171 |
| SRP54 (UniProt P61011) | inactive: 0.044 |
| ST7 (UniProt Q9NRC1) | inactive: 0.034 |
